Experimental findings from US20040005688A1 are described below.

Assay [1] addresses GST-fusion protein containing the N-terminal region of Dsh (GST-DN) (Drosophila). As to the kind of experiment: GST pull-down from lysates, and re-binding of kinase eluted from Dsh immuno-complex; in vitro kinase assay.
Assay [2] addresses GST-fusion protein containing the C-terminal region of Dsh (Drosophila). The description is as above.

Results are given in words; binding and its absence hold for the method and conditions named. In cells and extracts the contact can be indirect.

B1: Dishevelled Associated Kinase (DAK), endogenous kinase activity from Drosophila embryo and Clone-8 cell lysates (enzyme)
chain: MSTAMRTTLQSVPEALPADSVSNGTASNVAAPAAPVSSATNAVPPLAAVSSTTATYATNSISTSSHSVKDQQQQQQQQQHDSANANIVSLPPTTTPVANTNTMMPIVTSSNSATSNSTAATPTPASGAAATGGVGSVSQGPATVSASAANTNHSHQHSHQHHHHVANNMTTDGARLSSNNSAVVASSAINHHHHHTPGSGVAPTVNKNVLSTHSAHPSAIKQRTSSAKGSPNMQMRSSAPMRWRATEEHIGKYKLIKTIGKGNFAKVKLAKHLPTGKEVAIKIIDKTQLNPGSLQKLFREVRIMKMLDHPNIVKLFQVIETEKTLYLIMEYASGGEVFDYLVLHGRMKEKEARVKFRQIVSAVQYCHQKRIIHRDLKAENLLLDSELNIKIADFGFSNEFTPGSKLDTFCGSPPYAAPELFQGKKYDGPEVDVWSLGVILYTLVSGSLPFDGSTLRELRERVLRGKYRIPFYMSTDCENLLRKFLVLNPAKRASLETIMGDKWMNMGFEEDELKPYIEPKADLADPKRIEALVAMGYNRSEIEASLSQVRYDDVFATYLLLGRKSTDPESDGSRSGSSLSLRNISGNDAGANAGSASVQSPTHRGVHRSISASSTKPSRRASSGAETLRVGPTNAAATVAAATGAVGAVNPSNNYNAAGSAADRASVGSNFKRQNTIDSATIKENTARLAAQNQRPASATQKMLTTADTTLNSPAKPRTATKYDPTNGNRTVSGTSGIIPRRSTTLYEKTSSTEKTNVIPAETKMASAVKSSRHFPRNVPSRSTFHSGQTRARNNTALEYSGTSGASGDSSHPGRMSFFSKLSSRFSKRPNQ
B1: the binding entry in assay [1] and in assay [2] was “no binding” each time.
